From article PMC12040169 (PLOS Biology, 2025)
This is one part of the list.

tested on: T1, CTL2-GFP (C. trachomatis L2/434/Bu, GFP-expressing); design: species or system HeLa; Intracellular C. trachomatis growth in HeLa cells, bulk GFP fluorescence relative to DMSO; details: bulk GFP, single well; 28.5 h, 10 µM; inhibitor
T1 construct: L2/434/Bu, GFP-expressing

Compound | % of control remaining
O=C1c2ccccc2C(=O)N1CSc1nnc2c3ccccc3n(CCc3ccccc3)c2n1 [CBK263891] | 96.784%
COc1ccc(-n2nnnc2SCc2ccc(Cl)cc2)cc1 [CBK101068] | 102.192%
O=[N+]([O-])c1ccccc1S(=O)(=O)NCCSCc1c(F)cccc1Cl [CBK265259] | 100%
CCOC(=O)c1c2c([nH]c(=S)c1C#N)CCCC2 [CBK020049] | 168.945%
Cn1nccc1C(=O)C1CCN(C(=O)c2ccccc2F)CC1 [CBK284425] | 116.568%
COC(=O)c1c(NC(=O)CCCC(=O)O)sc2c1CCCCC2 [CBK265393] | 126.39%
CC(C)NC(=O)N1CCN(Cc2nc(-c3ccoc3)no2)CC1 [CBK306248] | 148.873%
O=[N+]([O-])c1ccc2c(c1)C=C1CCCCC1(NCc1ccccc1)O2 (stereo not drawn) [CBK262716] | 96.073%
CC(C)(CN)CN(Cc1ccccc1C(F)(F)F)C(=O)Nc1ccc(Cl)cc1Cl [CBK026832C] | 148.886%
O=c1n(Cc2cccnc2)c2cccnc2n1Cc1cccs1 [CBK283903] | 140.469%
CC(C)[C@H](NC(=O)Cc1n[nH]c(=O)c2ccccc12)C(=O)O [CBK286607] | 139.056%
O=C(N/N=C\c1cccc2ccccc12)c1ccc(CO)nc1 [CBK261377] | 109.731%
Cc1cccnc1C(NC(=O)C1CCN(Cc2ccoc2)CC1)c1ccc(Cl)cc1 (stereo not drawn) [CBK148227] | 117.17%
O=C(Nc1cc(Cl)cc(Cl)c1)c1csnn1 [CBK057759] | 128.962%
CCN1CCCC1CN(Cc1ccccn1)Cc1ccco1 (stereo not drawn) [CBK283161] | 111.351%
Cc1cc(F)ccc1S(=O)(=O)NCC1CC(=O)Nc2ccccc21 (stereo not drawn) [CBK305210] | 121.44%
Cc1c(CNCCN2CCCC2=O)c2ccccc2n1C [CBK281519] | 133.253%
O=C(COc1ccccc1[N+](=O)[O-])Nc1nc2c(s1)CCC2 [CBK296663] | 147.397%
COc1ccc(CN2CC=CC2C(=O)O)cc1Cn1cncn1 (stereo not drawn) [CBK307524] | 157.714%
COc1ccccc1OCCSc1nnnn1C1CCCCC1 [CBK141884] | 80.6616%
CC(Cc1nc(-c2nccn2C(C)C)cs1)n1cc(Cl)cn1 (stereo not drawn) [CBK304251] | 42.6216%

Compound | % of control remaining
Cc1cc2ccccc2c(=O)n1CCO [CBK015621] | 135.856%
O=C(COc1ccc(CCO)cc1)Nc1ccccc1-c1ccccc1 [CBK269666] | 127.641%
CC(Cc1nc(-c2cnnn2C)cs1)n1cc(Cl)cn1 (stereo not drawn) [CBK304245] | 95.3509%
FC(F)(F)c1ccc(-c2nnc(C3CC3)o2)cc1 [CBK021992] | 126.013%
Cc1ccsc1CCNC(=O)C1(Oc2cccnc2C)CCNCC1 [CBK307374] | 139.585%
Cc1cc(C)n(CC2CCCCN2CC(=O)NC(C)c2ccco2)n1 (stereo not drawn) [CBK305331] | 125.263%
O=C(O)CCSc1nnnn1-c1ccccc1 [CBK287217] | 146.293%
COc1ccc2cc(C(=O)N(CCO)Cc3ccc(C)s3)n(C)c2c1 [CBK306831] | 92.3871%
Cc1ccc(C(=O)C2=C(O)C(=O)N(CCN(C)C)C2c2ccccn2)o1 (stereo not drawn) [CBK266536] | 130.032%
O=C(/C=C/c1cn(C2CC(O)C(CO)O2)c(=O)[nH]c1=O)NCCNC(=O)C(F)(F)F (stereo not drawn) [CBK201214] | 149.098%
Cc1cc(C)c2c(CC(=O)NCCCN3CCOCC3)coc2c1 [CBK268307] | 124.31%
Cc1nc(CC(=O)O)c(-c2ccccc2)s1 [CBK264988] | 113.221%
CCN(CC)CCCOC(=O)C(CCSC)c1ccccc1C (stereo not drawn) [CBK023177C] | 164.835%
COC(=O)c1cc(-c2ccccc2OCc2ccccc2)ccc1NC(=O)c1ccc(Cl)cc1Cl [CBK000415] | 135.371%
O=C(NCc1cccs1)c1cc(S(=O)(=O)N2CCOCC2)c(Cl)cc1Cl [CBK269657] | 123.923%
COc1ccc(CCNC(=O)c2ncoc2-c2cccs2)cc1 [CBK283663] | 94.2949%
CS(=O)(=O)N(CC(=O)N/N=C/c1ccncc1)c1ccccc1Br [CBK263911] | 114.959%
CNCCOc1ncccc1OCc1ccccc1 [CBK036306] | 112.114%
CCc1nc(C2CCCN2c2ncc(C#N)cc2Cl)no1 (stereo not drawn) [CBK305183] | 128.485%
COc1ccccc1NC(=N)Nc1nc(CSc2nc3ccccc3s2)cc(=O)[nH]1 [CBK269046] | 144.84%
O=C(NCCc1nc2ccccc2[nH]1)c1cccs1 [CBK020529] | 138.516%

Compound | % of control remaining
CCN(CC)CCNc1nc(-c2cccc(Cl)c2)nc2ccccc12 [CBK267265C] | 47.3872%
Cc1c(C#N)c(=O)oc2ccccc12 [CBK007705] | 137.366%
COc1ccc(NC(=O)C2C3CCC(C3)C2C(=O)O)cc1OC (stereo not drawn) [CBK263684] | 100%
CC(=O)NC1(c2ccc(F)cc2)CCN(C(=O)C2CCC2)CC1 [CBK283492] | 89.1888%
CCC(COC)NS(=O)(=O)c1ccc(C(C)C)cc1 (stereo not drawn) [CBK044587] | 81.2228%
O=C(CN1C(=O)[C@@H]2CCCN2c2ncccc21)NC1CCCCC1 [CBK286204] | 106.888%
Nc1ncc(-c2cccc(/C=C/C(=O)O)c2)nc1N1CCN(CCO)CC1 [CBK063665] | 161.679%
Cc1c(S(=O)(=O)Nc2ccc3cn[nH]c3c2)cnn1-c1ccccc1 [CBK067149] | 168.632%
C[C@@H](Cn1nnc2ccccc21)NC(=O)Cc1ccccc1F [CBK282305] | 124.671%
COc1ccc(-c2nc(NC(=O)CC#N)cnc2-c2ccc(F)cc2)cc1 [CBK037198] | 186.535%
CN1CCC2(CC1)CC(NC(=O)c1ccco1)c1ccccc1O2 (stereo not drawn) [CBK283804] | 144.997%
COc1cccc2sc(Nc3nc(-c4cccnc4)cs3)nc12 [CBK287470] | 108.308%
CN1CCN(C(=O)c2ccsc2NS(=O)(=O)/C=C/c2ccccc2)CC1 [CBK042267] | 100%
COc1ccc(NC(=O)C2CCCCC2C(=O)O)c(C)c1 (stereo not drawn) [CBK270301] | 117.084%
O=C(O)C1CC(O)CN1S(=O)(=O)c1ccc([N+](=O)[O-])cc1 (stereo not drawn) [CBK266158] | 150.73%
COCCN1CCN(C(=O)NCCc2c(C)[nH]c3ccc(Cl)cc23)CC1 [CBK307637] | 128.35%
O=C(CCN1C(=O)[C@@H]2Cc3ccccc3CN2C1=O)N[C@H](C(=O)O)c1ccccc1 [CBK286751] | 107.931%
CCN1CCCC(NC(=O)COc2nn(C)c3nc(C)cc(C)c23)C1 (stereo not drawn) [CBK305224] | 67.23%
O=C1CCc2cccc(OCCOc3nccnc3N3CCNCC3)c21 [CBK200001G] | 116.488%
O=C(C1CC1)N1CCC(Cn2nc(-c3cccs3)ccc2=O)CC1 [CBK284039] | 132.988%
COCC1(C(=O)N(C)Cc2nnc(-c3ccccc3)o2)CCC1 [CBK306987] | 124.251%

Among those listed so far, these contain a COOH group:
Compound | % of control remaining
COC(=O)c1c(NC(=O)CCCC(=O)O)sc2c1CCCCC2 [CBK265393] | 126.39%
CC(C)[C@H](NC(=O)Cc1n[nH]c(=O)c2ccccc12)C(=O)O [CBK286607] | 139.056%
COc1ccc(CN2CC=CC2C(=O)O)cc1Cn1cncn1 (stereo not drawn) [CBK307524] | 157.714%
O=C(O)CCSc1nnnn1-c1ccccc1 [CBK287217] | 146.293%
Cc1nc(CC(=O)O)c(-c2ccccc2)s1 [CBK264988] | 113.221%
COc1ccc(NC(=O)C2C3CCC(C3)C2C(=O)O)cc1OC (stereo not drawn) [CBK263684] | 100%
Nc1ncc(-c2cccc(/C=C/C(=O)O)c2)nc1N1CCN(CCO)CC1 [CBK063665] | 161.679%
COc1ccc(NC(=O)C2CCCCC2C(=O)O)c(C)c1 (stereo not drawn) [CBK270301] | 117.084%
O=C(O)C1CC(O)CN1S(=O)(=O)c1ccc([N+](=O)[O-])cc1 (stereo not drawn) [CBK266158] | 150.73%
O=C(CCN1C(=O)[C@@H]2Cc3ccccc3CN2C1=O)N[C@H](C(=O)O)c1ccccc1 [CBK286751] | 107.931%

Reformatted: results already given
CN1CCC2(CC1)CC(NC(=O)c1ccco1)c1ccccc1O2 (stereo not drawn) [CBK283804]
  % of control remaining: 144.997%
COc1cccc2sc(Nc3nc(-c4cccnc4)cs3)nc12 [CBK287470]
  % of control remaining: 108.308%

Going on with the list.

Compound | % of control remaining
O=c1[nH]ccn1CCNc1ccc(-c2cccc(Cl)c2Cl)cn1 [CBK037745] | 186.477%
CC(C)(C)C(=O)Nc1ccc(Cc2ccc(NC(=O)C(C)(C)C)c(C(=O)O)c2)cc1C(=O)O [CBK261393] | 111.063%
CC(=O)c1c(C)n(O)c2ccc(Cl)cc2c1=O [CBK217746] | 99.8565%
C=CCOc1ccc(-c2nn(-c3ccccc3)cc2/C=C2/SC(=S)N(CC(=O)O)C2=O)c(C)c1 [CBK265062] | 138.411%
CC1=CCC(C(=O)O)C(C(=O)Nc2cccnc2)C1 (stereo not drawn) [CBK265895] | 132.622%
O=C(NC1(c2ccccc2)CC1)c1ccc(-n2cnnc2)cc1 [CBK282778] | 81.6684%
CC(C)(C)OC(=O)NCc1ccc(CNCc2ccccc2Br)cc1 [CBK056701] | 90.7747%
Cn1cc([C@@H]2CN(Cc3cccs3)C[C@H]2N)c2ccncc21 [CBK285320] | 124.151%
Cc1nn(CC(=O)C(C)(C)C)c(=O)c2cc3sccc3n12 [CBK284111] | 114.156%
O=c1[nH]c2c(c(=O)[nH]1)[C@H]1[C@H](O)[C@H](O)C[C@H]1[C@@H](c1ccccc1)N2 [CBK303239] | 140.572%
O=S(=O)(c1cc(Cl)ccc1Cl)N1CCSC1 [CBK097980] | 145.785%
NS(=O)(=O)c1ccc(NC(=O)CSc2ccc([N+](=O)[O-])cn2)cc1 [CBK269002] | 70.7271%
CCc1csc(C2CN3CCCC3CO2)n1 (stereo not drawn) [CBK304793] | 114.51%
Cc1ccc(Oc2ccc(C(=O)NCC(=O)O)cc2)cc1C [CBK286570] | 114.936%
CCN(CC)C(=O)C1CCCN(C(=O)Nc2cccc(OC)c2)C1 (stereo not drawn) [CBK005159] | 114.276%
NC(=O)c1ccc(NC(=O)c2sc3ccccc3c2Cl)cc1 [CBK262643] | 105.065%
Cn1c(-c2ccc(C(=O)O)cc2)cc2oc(-c3ccccc3)nc2c1=O [CBK074957] | 89.1048%
Cc1ccc(Cl)cc1NC(=O)c1cc(NC(=O)C2C3C=CC(C3)C2C(=O)O)ccc1N1CCCCC1 (stereo not drawn) [CBK268194] | 133.06%
